Data on one substance can be found in article PMC5784528.

Chains of the proteins cited; added tags and fusions are not shown.
UniProt Q16513: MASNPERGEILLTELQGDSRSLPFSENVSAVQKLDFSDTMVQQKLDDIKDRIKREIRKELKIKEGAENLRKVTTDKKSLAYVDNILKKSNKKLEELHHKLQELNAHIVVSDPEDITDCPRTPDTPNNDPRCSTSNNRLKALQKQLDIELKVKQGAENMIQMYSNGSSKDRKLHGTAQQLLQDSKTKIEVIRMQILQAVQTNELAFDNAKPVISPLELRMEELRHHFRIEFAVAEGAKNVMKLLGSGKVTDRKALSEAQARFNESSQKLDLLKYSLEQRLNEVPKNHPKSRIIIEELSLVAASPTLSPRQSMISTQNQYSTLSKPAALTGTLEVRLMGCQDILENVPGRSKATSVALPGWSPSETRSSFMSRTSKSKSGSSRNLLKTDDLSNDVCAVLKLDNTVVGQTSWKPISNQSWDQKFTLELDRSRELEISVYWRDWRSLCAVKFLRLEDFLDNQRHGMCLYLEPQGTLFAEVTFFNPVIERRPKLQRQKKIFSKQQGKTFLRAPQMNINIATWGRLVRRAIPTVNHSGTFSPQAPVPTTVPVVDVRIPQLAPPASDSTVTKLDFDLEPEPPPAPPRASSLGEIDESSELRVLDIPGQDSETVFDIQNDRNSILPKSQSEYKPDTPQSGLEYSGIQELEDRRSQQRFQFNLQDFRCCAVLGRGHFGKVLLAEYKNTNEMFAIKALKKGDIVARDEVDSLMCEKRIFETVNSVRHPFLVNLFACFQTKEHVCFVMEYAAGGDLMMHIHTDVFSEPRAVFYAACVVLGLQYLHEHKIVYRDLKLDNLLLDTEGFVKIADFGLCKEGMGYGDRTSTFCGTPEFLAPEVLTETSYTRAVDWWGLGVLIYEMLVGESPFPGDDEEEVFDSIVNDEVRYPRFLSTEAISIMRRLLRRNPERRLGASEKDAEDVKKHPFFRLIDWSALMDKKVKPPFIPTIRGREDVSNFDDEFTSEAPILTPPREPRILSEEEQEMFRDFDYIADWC

For this assay, the target named is T1, Dual specificity protein phosphatase 6 (DUSP6), endogenous in colon cancer cell lines (human (endogenous in HCT116, SW480, HT-29)) (UniProt Q16828).
T1 sequence: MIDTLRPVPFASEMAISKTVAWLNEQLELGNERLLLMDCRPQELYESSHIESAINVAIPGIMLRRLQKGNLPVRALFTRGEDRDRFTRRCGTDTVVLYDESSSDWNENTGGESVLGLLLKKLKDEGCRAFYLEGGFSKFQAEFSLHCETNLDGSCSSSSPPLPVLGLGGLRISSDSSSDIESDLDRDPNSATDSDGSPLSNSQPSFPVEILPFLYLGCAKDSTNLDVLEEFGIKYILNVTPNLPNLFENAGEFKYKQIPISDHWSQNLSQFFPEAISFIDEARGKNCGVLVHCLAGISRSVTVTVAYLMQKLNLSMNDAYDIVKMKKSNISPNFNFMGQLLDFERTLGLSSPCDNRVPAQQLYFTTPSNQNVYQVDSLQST
Put plainly: co-IP; endogenous proteins in lysates of HCT116, SW480 and HT-29 cells; supernatants incubated with anti-DUSP6, anti-PKN2 or control IgG at 4 °C overnight, protein A/G agarose beads 2 h; western blot. (Immunoblotting shows a protein as a band on a membrane.)

Results are given in words; binding and its absence hold for the method and conditions named. In cells and extracts the contact can be indirect. Some results given as binding are weak or reduced against the parent protein; the word gives no strength.

For “Protein kinase N2 (PKN2), endogenous in colon cancer cell lines (from UniProt Q16513 1-984)”, the binding entry was “binds”.
